Results taken from patent US9926581B2, “Fagopyritol synthase genes and uses thereof” (Cornell Research Foundation, Inc., priority 2002, dated 2018).
Values joined by “and” are separate entries in the source; they are usually repeats but may differ in a detail not shown here. Identical values can stand only once.

Experiments:
buckwheat embryos = test: Soluble carbohydrates in buckwheat embryos from seeds matured at 15, 22 or 30° C.; assay type: in vivo, Fagopyrum esculentum Moench; conditions: harvested at 28 DAP and dried 2 weeks at 12% RH, mean ± SE
buckwheat explants = test: Buckwheat explant feeding with 100 mM cyclitol in 1% sucrose for 5 days, soluble carbohydrates in embryos and leaf disks; assay type: in vivo, Fagopyrum esculentum; conditions: replicate values
soybean explants [1] = test: Soybean explant feeding with 50 mM free cyclitols for one week, soluble carbohydrates in mature seeds; assay type: in vivo, Glycine max (L.) Merrill cv. Chippewa 64
immature soybean embryos = test: Embryo feeding experiments: cyclitols fed to immature soybean embryos, precocious maturation by slow drying, soluble carbohydrates in axis and cotyledons; assay type: in vivo, Glycine max (L.) Merrill; conditions: for increase in concentration after feeding D-chiro-inositol: concentration series, 14 days precocious maturation
soybean explants [2] = test: Soybean explant feeding 3 days with 50 mM cyclitol in 1% sucrose, slow drying time course, soluble carbohydrates in axis, cotyledon, seed coat and leaf
[3] = 3 days transport of sucrose (1%) and D-chiro-inositol (50 mM), after 2 days slow drying, Rep 1
[4] = 3 days transport of sucrose (1%) and D-chiro-inositol (50 mM), after 2 days slow drying, Rep 2
[5] = 3 days transport of sucrose (1%) and D-chiro-inositol (50 mM), after 4 days slow drying, Rep 1
[6] = 3 days transport of sucrose (1%) and D-chiro-inositol (50 mM), after 4 days slow drying, Rep 2
[7] = 3 days transport of sucrose (1%) and D-chiro-inositol (50 mM), after 14 days slow drying, Rep 1
[8] = 3 days transport of sucrose (1%) and D-chiro-inositol (50 mM), after 14 days slow drying, Rep 2
[9] = 3 days transport of sucrose (1%) and D-chiro-inositol (50 mM), before slow drying, Rep 1
[10] = 3 days transport of sucrose (1%) and D-chiro-inositol (50 mM), before slow drying, Rep 2
[11] = 3 days transport of sucrose (1%) and D-pinitol (50 mM), after 2 days slow drying, Rep 1
[12] = 3 days transport of sucrose (1%) and D-pinitol (50 mM), after 2 days slow drying, Rep 2

## OCC1O[C@H](OC2C(O)[C@H](O)C(O)C(O)[C@@H]2O)C(O)C(O)[C@H]1O (stereo partly drawn) [Fagopyritol B1, α-D-galactopyranosyl-(1→2)-1D-chiro-inositol]
Buckwheat embryos; seeds matured at 15° C.
  Soluble carbohydrates in buckwheat embryos: 256.00 ± 38.30 μg/embryo
Buckwheat embryos; seeds matured at 22° C.
  Soluble carbohydrates in buckwheat embryos: 219.15 ± 24.20 μg/embryo
Buckwheat embryos; seeds matured at 30° C.
  Soluble carbohydrates in buckwheat embryos: 159.60 ± 7.70 μg/embryo
Buckwheat explants; fed 100 mM D-chiro-inositol in 1% sucrose solution 5 days, 2 days slow drying
  Soluble carbohydrates in embryos of seeds from buckwheat explants: 127.23 μg/embryo and 635.89 μg/embryo
Buckwheat explants; fed 100 mM D-chiro-inositol in 1% sucrose solution 5 days, 4 days slow drying
  Soluble carbohydrates in embryos of seeds from buckwheat explants: 125.16 μg/embryo and 388.66 μg/embryo and 270.67 μg/embryo
Buckwheat explants; fed 100 mM D-chiro-inositol in 1% sucrose solution 5 days, 7 days slow drying
  Soluble carbohydrates in embryos of seeds from buckwheat explants: 298.43 μg/embryo and 190.64 μg/embryo and 208.33 μg/embryo
Buckwheat explants; fed 100 mM D-chiro-inositol in 1% sucrose solution, after 1 day feeding
  Soluble carbohydrates in embryos of seeds from buckwheat explants: 0 μg/embryo
Buckwheat explants; fed 100 mM D-chiro-inositol in 1% sucrose solution, after 5 days feeding
  Soluble carbohydrates in embryos of seeds from buckwheat explants: 33.64 μg/embryo and 623.00 μg/embryo and 322.50 μg/embryo
Buckwheat explants; fed 100 mM D-pinitol in 1% sucrose solution 5 days, 2 days slow drying
  Soluble carbohydrates in embryos of seeds from buckwheat explants: 7.29 μg/embryo and 165.96 μg/embryo and 111.41 μg/embryo
Buckwheat explants; fed 100 mM D-pinitol in 1% sucrose solution 5 days, 4 days slow drying
  Soluble carbohydrates in embryos of seeds from buckwheat explants: 116.5 μg/embryo and 165.56 μg/embryo and 77.90 μg/embryo
Buckwheat explants; fed 100 mM D-pinitol in 1% sucrose solution 5 days, 7 days slow drying
  Soluble carbohydrates in embryos of seeds from buckwheat explants: 64.64 μg/embryo and 77.20 μg/embryo and 119.44 μg/embryo
Buckwheat explants; fed 100 mM D-pinitol in 1% sucrose solution, after 1 day feeding
  Soluble carbohydrates in embryos of seeds from buckwheat explants: 1.44 μg/embryo
Buckwheat explants; fed 100 mM D-pinitol in 1% sucrose solution, after 5 days feeding
  Soluble carbohydrates in embryos of seeds from buckwheat explants: 0.98 μg/embryo and 90.76 μg/embryo and 75.14 μg/embryo
Buckwheat explants; fed 100 mM myo-inositol in 1% sucrose solution 5 days, 2 days slow drying
  Soluble carbohydrates in embryos of seeds from buckwheat explants: 300.84 μg/embryo and 129.87 μg/embryo
Buckwheat explants; fed 100 mM myo-inositol in 1% sucrose solution 5 days, 4 days slow drying
  Soluble carbohydrates in embryos of seeds from buckwheat explants: 111.78 μg/embryo and 183.36 μg/embryo
Buckwheat explants; fed 100 mM myo-inositol in 1% sucrose solution 5 days, 7 days slow drying
  Soluble carbohydrates in embryos of seeds from buckwheat explants: 79.17 μg/embryo and 188.73 μg/embryo
Buckwheat explants; fed 100 mM myo-inositol in 1% sucrose solution, after 1 day feeding
  Soluble carbohydrates in embryos of seeds from buckwheat explants: 0 μg/embryo
Buckwheat explants; fed 100 mM myo-inositol in 1% sucrose solution, after 5 days feeding
  Soluble carbohydrates in embryos of seeds from buckwheat explants: 95.33 μg/embryo and 44.47 μg/embryo
Buckwheat explants; fed 1% sucrose (without cyclitols) solution 5 days, 2 days slow drying
  Soluble carbohydrates in embryos of seeds from buckwheat explants: 55.08 μg/embryo and 237.27 μg/embryo and 476.65 μg/embryo
Buckwheat explants; fed 1% sucrose (without cyclitols) solution 5 days, 4 days slow drying
  Soluble carbohydrates in embryos of seeds from buckwheat explants: 89.92 μg/embryo and 72.98 μg/embryo
Buckwheat explants; fed 1% sucrose (without cyclitols) solution 5 days, 7 days slow drying
  Soluble carbohydrates in embryos of seeds from buckwheat explants: 138.32 μg/embryo and 111.37 μg/embryo
Buckwheat explants; fed 1% sucrose (without cyclitols) solution, after 5 days feeding
  Soluble carbohydrates in embryos of seeds from buckwheat explants: 0.87 μg/embryo and 151.69 μg/embryo
Soybean explants [1]; axis and cotyledon tissue of mature seeds
  change in concentration after feeding 50 mM myo-inositol to explants: no significant increase
Soybean explants [1]; axis tissues
  increase after feeding 50 mM D-chiro-inositol to explants: 17 fold
Soybean explants [1]; cotyledon tissues
  increase after feeding 50 mM D-chiro-inositol to explants: 20 fold
Immature soybean embryos; axis tissues, 14 days
  reduction after feeding D-pinitol and D-chiro-inositol compared to D-chiro-inositol alone: about 50%
Immature soybean embryos; axis tissues
  increase in concentration after feeding D-chiro-inositol: 17 fold
Immature soybean embryos; cotyledons
  change in accumulation after feeding 25 to 50 mM myo-inositol: reduced
  increase in concentration after feeding D-chiro-inositol: 7 fold
Immature soybean embryos; fed 100 mM D-chiro-inositol alone
  concentration in cotyledons at day 4 of slow drying: 16 mg/g DW
Immature soybean embryos; fed combination of 100 mM D-pinitol and 100 mM D-chiro-inositol
  concentration in cotyledons at day 4 of slow drying: 14 mg/g DW
Soybean explants [2]; [3]
  Accumulation of soluble carbohydrates in soybean axis: 32.08 μg/axis
  Accumulation of soluble carbohydrates in soybean cotyledon: 45.25 μg/cotyledon
  Accumulation of soluble carbohydrates in soybean seed coat: 3.52 μg/seed coat
Soybean explants [2]; [4]
  Accumulation of soluble carbohydrates in soybean axis: 25.93 μg/axis
  Accumulation of soluble carbohydrates in soybean cotyledon: 25.67 μg/cotyledon
  Accumulation of soluble carbohydrates in soybean seed coat: 4.88 μg/seed coat
Soybean explants [2]; [5]
  Accumulation of soluble carbohydrates in soybean axis: 81.94 μg/axis
  Accumulation of soluble carbohydrates in soybean cotyledon: 711.00 μg/cotyledon
  Accumulation of soluble carbohydrates in soybean seed coat: 9.14 μg/seed coat
Soybean explants [2]; [6]
  Accumulation of soluble carbohydrates in soybean axis: 73.53 μg/axis
  Accumulation of soluble carbohydrates in soybean cotyledon: 535.23 μg/cotyledon
  Accumulation of soluble carbohydrates in soybean seed coat: 8.69 μg/seed coat
Soybean explants [2]; [7]
  Accumulation of soluble carbohydrates in soybean axis: 78.96 μg/axis
  Accumulation of soluble carbohydrates in soybean cotyledon: 612.60 μg/cotyledon
  Accumulation of soluble carbohydrates in soybean seed coat: 14.54 μg/seed coat
Soybean explants [2]; [8]
  Accumulation of soluble carbohydrates in soybean axis: 55.76 μg/axis
  Accumulation of soluble carbohydrates in soybean cotyledon: 626.65 μg/cotyledon
  Accumulation of soluble carbohydrates in soybean seed coat: 51.81 μg/seed coat
Soybean explants [2]; [9]
  Accumulation of soluble carbohydrates in soybean axis: 2.04 μg/axis
  Accumulation of soluble carbohydrates in soybean cotyledon: 10.55 μg/cotyledon
Soybean explants [2]; [10]
  Accumulation of soluble carbohydrates in soybean axis: 0 μg/axis
  Accumulation of soluble carbohydrates in soybean cotyledon: 0 μg/cotyledon
Soybean explants [2]; [11]
  Accumulation of soluble carbohydrates in soybean axis: 4.30 μg/axis
  Accumulation of soluble carbohydrates in soybean cotyledon: 4.99 μg/cotyledon
  Accumulation of soluble carbohydrates in soybean seed coat: 0 μg/seed coat
Soybean explants [2]; [12]
  Accumulation of soluble carbohydrates in soybean axis: 2.75 μg/axis
  Accumulation of soluble carbohydrates in soybean cotyledon: 4.57 μg/cotyledon
  Accumulation of soluble carbohydrates in soybean seed coat: 2.10 μg/seed coat
